Measured values as given in the supplement of paper PMC8728848.
Some of the results follow.

Experiments:
Assay in all cases: glycan array binding signal (z-score within array); higher = stronger binding
Conditions in all cases: glycan notation: IUPAC condensed, linker removed
[1] = target: Gal(b1-3)GlcNAc(b1-2)Man(a1-3)[Gal(b1-3)GlcNAc(b1-2)Man(a1-6)]Man(b1-4)GlcNAc(b1-4)[Fuc(a1-6)]GlcNAc
Method in brief: (§1)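 The Consortium for Functional Glycomics database supplied 3228 glycan arrays, of which those lacking an available protein sequence were dropped. The binding signal, a within-array Z-score, was averaged across arrays of the same protein sequence and across linkers. Negative scores can be read as non-binding.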

[2] = target: Gal(b1-3)GlcNAc(b1-2)Man(a1-3)[GlcNAc(b1-4)][Gal(b1-3)GlcNAc(b1-2)Man(a1-6)]Man(b1-4)GlcNAc(b1-4)GlcNAc
Method in brief: as §1

[3] = target: Gal(b1-3)GlcNAc(b1-2)[Gal(b1-3)GlcNAc(b1-6)]Man(a1-6)[Gal(b1-3)GlcNAc(b1-2)Man(a1-3)]Man(b1-4)GlcNAc(b1-4)GlcNAc
Method in brief: as §1

[4] = target: Gal(b1-3)GlcNAc(b1-3)Gal(b1-3)GlcNAc
Method in brief: as §1

[5] = target: Gal(b1-3)GlcNAc(b1-3)Gal(b1-4)Glc
Method in brief: as §1

[6] = target: Gal(b1-3)GlcNAc(b1-3)Gal(b1-4)GlcNAc
Method in brief: as §1

[7] = target: Gal(b1-3)GlcNAc(b1-3)Gal(b1-4)GlcNAc(b1-2)Man(a1-3)[Gal(b1-3)GlcNAc(b1-3)Gal(b1-4)GlcNAc(b1-2)Man(a1-6)]Man(b1-4)GlcNAc(b1-4)GlcNAc
Method in brief: as §1

[8] = target: Gal(b1-3)GlcNAc(b1-3)Gal(b1-4)GlcNAc(b1-2)[Gal(b1-3)GlcNAc(b1-3)Gal(b1-4)GlcNAc(b1-6)]Man(a1-6)[Gal(b1-3)GlcNAc(b1-3)Gal(b1-4)GlcNAc(b1-2)Man(a1-3)]Man(b1-4)GlcNAc(b1-4)[Fuc(a1-6)]GlcNAc
Method in brief: as §1

[9] = target: Gal(b1-3)GlcNAc(b1-3)Gal(b1-4)GlcNAc(b1-3)Gal(b1-4)GlcNAc(b1-2)[Gal(b1-3)GlcNAc(b1-3)Gal(b1-4)GlcNAc(b1-3)Gal(b1-4)GlcNAc(b1-6)]Man(a1-6)[Gal(b1-3)GlcNAc(b1-3)Gal(b1-4)GlcNAc(b1-3)Gal(b1-4)GlcNAc(b1-2)Man(a1-3)]Man(b1-4)GlcNAc(b1-4)[Fuc(a1-6)]GlcNAc
Method in brief: as §1

[10] = target: Gal(b1-3)GlcNAc(b1-3)Gal(b1-4)GlcNAc(b1-6)[Gal(b1-3)GlcNAc(b1-3)]Gal(b1-4)Glc
Method in brief: as §1

[11] = target: Gal(b1-3)GlcNAc(b1-3)Gal(b1-4)[Fuc(a1-3)]GlcNAc
Method in brief: as §1

[12] = target: Gal(b1-3)GlcNAc(b1-3)Gal(b1-4)[Fuc(a1-3)]GlcNAc(b1-6)[Gal(b1-3)GlcNAc(b1-3)]Gal(b1-4)Glc
Method in brief: as §1

[13] = target: Gal(b1-3)GlcNAc(b1-3)GalNAc
Method in brief: as §1

[14] = target: Gal(b1-3)GlcNAc(b1-6)Gal(b1-4)GlcNAc
Method in brief: as §1

[15] = target: Gal(b1-3)GlcNAc(b1-6)GalNAc
Method in brief: as §1

[16] = target: Gal(b1-3)GlcNAc(b1-6)[Gal(b1-3)]GalNAc
Method in brief: as §1

[17] = target: Gal(b1-3)GlcNAc6S
Method in brief: as §1

[18] = target: Gal(b1-3)[Fuc(a1-4)]GlcNAc
Method in brief: as §1

[19] = target: Gal(b1-3)[Fuc(a1-4)]GlcNAc(b1-2)Man
Method in brief: as §1

[20] = target: Gal(b1-3)[Fuc(a1-4)]GlcNAc(b1-2)Man(a1-3)[Gal(b1-3)[Fuc(a1-4)]GlcNAc(b1-2)Man(a1-6)]Man(b1-4)GlcNAc(b1-4)[Fuc(a1-6)]GlcNAc
Method in brief: as §1

[21] = target: Gal(b1-3)[Fuc(a1-4)]GlcNAc(b1-3)Gal(b1-3)[Fuc(a1-4)]GlcNAc
Method in brief: as §1

[22] = target: Gal(b1-3)[Fuc(a1-4)]GlcNAc(b1-3)Gal(b1-4)[Fuc(a1-3)]GlcNAc
Method in brief: as §1

[23] = target: Gal(b1-3)[Fuc(a1-4)]GlcNAc(b1-6)GalNAc
Method in brief: as §1

[24] = target: Gal(b1-3)[GlcNAc(b1-6)]GalNAc
Method in brief: as §1

[25] = target: Gal(b1-3)[Neu5Ac(a2-6)]GalNAc
Method in brief: as §1

[26] = target: Gal(b1-3)[Neu5Ac(a2-6)]GlcNAc(b1-4)Gal(b1-4)Glc
Method in brief: as §1

[27] = target: Gal(b1-3)[Neu5Ac(b2-6)]GalNAc
Method in brief: as §1

[28] = target: Gal(b1-4)Gal
Method in brief: as §1

[29] = target: Gal(b1-4)GalNAc(a1-3)[Fuc(a1-2)]Gal(b1-4)GlcNAc
Method in brief: as §1

[30] = target: Gal(b1-4)GalNAc(b1-3)[Fuc(a1-2)]Gal(b1-4)GlcNAc
Method in brief: as §1

[31] = target: Gal(b1-4)Glc
Method in brief: as §1

[32] = target: Gal(b1-4)Glc6S
Method in brief: as §1

[33] = target: Gal(b1-4)GlcNAc
Method in brief: as §1

[34] = target: Gal(b1-4)GlcNAc(a1-6)Gal(b1-4)GlcNAc
Method in brief: as §1

[35] = target: Gal(b1-4)GlcNAc(b1-2)Man
Method in brief: as §1

[36] = target: Gal(b1-4)GlcNAc(b1-2)Man(a1-3)Man(b1-4)GlcNAc(b1-4)GlcNAc
Method in brief: as §1

[37] = target: Gal(b1-4)GlcNAc(b1-2)Man(a1-3)[Gal(b1-4)GlcNAc(b1-2)Man(a1-6)]Man(b1-4)GlcNAc(b1-4)GlcNAc
Method in brief: as §1

B1: SP15308F-bth-333-19-333 (Bacteroides thetaiotaomicron) (protein)
chain: SCNNEWESEQYVQMVSFKAPVNAQGVTPIYIRYKPEGKVTYQLPLIVSGSTMNSKDLNVHVGLDLDTLDVLNVEHFGSRKELFFKPLENKYYEFPETVQIPAGECTSLLPIDFALKDLDQVDKWVLPLAIQSNDPSHNYQANPRKFYRRAMLRISPFNDYSGQYSATAYKVYFKGNEKEAIVPEYHTSYVIDDKTIFFYAGLIDIDRLDRKYYKIKFEFTEEKIDLQTRKLKISSDNEDINLVVKGQPSYTVEEEMDATRPYLKHIYVTINNLEYEFTDYTSVPGYPLEYVVKGSLTMERKINTQIPDEDQAIEW
glycan array binding signal (z-score) [1]: 2.33
glycan array binding signal (z-score) [2]: 1.43
glycan array binding signal (z-score) [3]: 0.375
glycan array binding signal (z-score) [4]: -0.043
glycan array binding signal (z-score) [5]: -0.746
glycan array binding signal (z-score) [6]: -0.871
glycan array binding signal (z-score) [7]: -0.467
glycan array binding signal (z-score) [8]: 0.703
glycan array binding signal (z-score) [9]: -0.335
glycan array binding signal (z-score) [10]: 0.657
glycan array binding signal (z-score) [11]: -0.483
glycan array binding signal (z-score) [12]: -0.893
glycan array binding signal (z-score) [13]: -1.26
glycan array binding signal (z-score) [14]: 0.49
glycan array binding signal (z-score) [15]: -0.949
glycan array binding signal (z-score) [16]: 0.874
glycan array binding signal (z-score) [17]: -0.484
glycan array binding signal (z-score) [18]: 0.524
glycan array binding signal (z-score) [19]: 0.606
glycan array binding signal (z-score) [20]: 1.26
glycan array binding signal (z-score) [21]: -0.559
glycan array binding signal (z-score) [22]: 0.291
glycan array binding signal (z-score) [23]: 0.191
glycan array binding signal (z-score) [24]: 1.44
glycan array binding signal (z-score) [25]: -0.545
glycan array binding signal (z-score) [26]: 0.401
glycan array binding signal (z-score) [27]: -0.816
glycan array binding signal (z-score) [28]: -1.04
glycan array binding signal (z-score) [29]: -0.102
glycan array binding signal (z-score) [30]: 0.863
glycan array binding signal (z-score) [31]: 0.374
glycan array binding signal (z-score) [32]: -0.415
glycan array binding signal (z-score) [33]: -0.324
glycan array binding signal (z-score) [34]: 0.206
glycan array binding signal (z-score) [35]: 2.88
glycan array binding signal (z-score) [36]: -0.47
glycan array binding signal (z-score) [37]: 0.388
